Measurements reported in patent US20250154253A1 (ROCKEFELLER UNIVERSITY, published 2025).
Results are given in words; binding and its absence hold for the method and conditions named. Some binding calls cover weakened binding; strength is not graded here.

Biological target: T1, FcγRIV
T1 construct: also called mouse FcγRIV; mFcγRIV
T1 chain: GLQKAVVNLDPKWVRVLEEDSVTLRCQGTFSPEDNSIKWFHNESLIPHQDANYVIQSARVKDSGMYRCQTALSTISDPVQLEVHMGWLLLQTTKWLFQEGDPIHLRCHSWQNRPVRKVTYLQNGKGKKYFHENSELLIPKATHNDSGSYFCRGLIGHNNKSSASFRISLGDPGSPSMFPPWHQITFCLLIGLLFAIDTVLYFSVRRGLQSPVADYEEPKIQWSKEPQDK
Test: no assay stated; drawn summary table of graded binding (- to ++++), for which the text cites Nimmerjahn et al. 2005

binding: binds
B1: IgG2a (antibody)
heavy chain constant region: TTAPSVYPLAPVCGGTTGSSVTLGCLVKGYFPEPVTLTWNSGSLSSGVHTFPALLQSGLYTLSSSVTVTSNTWPSQTITCNVAHPASSTKVDKKIEPRVPITQNPCPPLKECPPCAAPDLLGGPSVFIFPPKIKDVLMISLSPMVTCVVVDVSEDDPDVQISWFVNNVEVHTAQTQTHREDYNSTLRVVSALPIQHQDWMSGKEFKCKVNNRALPSPIEKTISKPRGPVRAPQVYVLPPPAEEMTKKEFSLTCMITGFLPAEIAVDWTSNGRTEQNYKNTATVLDSDGSYFMYSKLRVQKSTWERGSLFACSVVHEGLHNHLTTKTISRSLGK
notes: The variable region is not specified there; also called mIgG2a; mouse IgG2a subclass (Fc format)
